Source: patent EP0971740B1
These are yes or no findings as the source states them, for the method shown. Some results given as binding are weak or reduced against the parent protein; the word gives no strength.

The chains behind the UniProt entries cited, without tags or fusion partners. Residues count along the entry.
UniProt P14738, residues 620-878: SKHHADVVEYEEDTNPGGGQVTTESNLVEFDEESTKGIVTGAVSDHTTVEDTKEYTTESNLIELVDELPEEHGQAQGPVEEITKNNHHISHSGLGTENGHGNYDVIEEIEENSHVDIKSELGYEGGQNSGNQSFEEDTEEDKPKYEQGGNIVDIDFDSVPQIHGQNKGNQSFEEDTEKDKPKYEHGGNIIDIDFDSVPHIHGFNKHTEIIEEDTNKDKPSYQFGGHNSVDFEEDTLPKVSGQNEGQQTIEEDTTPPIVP
UniProt P02751, residues 32-290: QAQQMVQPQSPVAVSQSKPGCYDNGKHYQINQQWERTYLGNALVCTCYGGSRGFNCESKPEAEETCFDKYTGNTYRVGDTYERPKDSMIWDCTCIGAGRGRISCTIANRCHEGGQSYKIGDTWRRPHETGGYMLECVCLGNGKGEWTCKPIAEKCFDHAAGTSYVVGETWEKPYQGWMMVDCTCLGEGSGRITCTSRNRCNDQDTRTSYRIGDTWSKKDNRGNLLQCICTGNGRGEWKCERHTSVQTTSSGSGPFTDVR

Biological target: GST-Du1234 (Schistosoma japonicum; Staphylococcus aureus) (UniProt P14738)
Test: 125I-N29 (8 x 10^4 cpm) on GST-Du1234 coated wells

## N29, N-terminal fragment of fibronectin (from UniProt P02751 32-290) (ligand)
  binding: binds
